No constants are given. Whether binding was seen depends on the method and setting. Where a sequence is shown, tags or fusion partners need not be part of it.
T1: GST_CT_p130Cas (UniProt Q61140)
T1 sequence: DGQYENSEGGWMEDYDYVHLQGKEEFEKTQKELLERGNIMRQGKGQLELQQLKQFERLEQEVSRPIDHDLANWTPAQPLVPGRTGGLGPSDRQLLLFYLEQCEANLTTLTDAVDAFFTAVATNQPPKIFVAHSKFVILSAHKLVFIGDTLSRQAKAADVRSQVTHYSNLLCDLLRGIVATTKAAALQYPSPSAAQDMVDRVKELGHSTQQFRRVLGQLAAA

T2: GST_YXXP_p130Cas (UniProt Q61140)
T2 sequence: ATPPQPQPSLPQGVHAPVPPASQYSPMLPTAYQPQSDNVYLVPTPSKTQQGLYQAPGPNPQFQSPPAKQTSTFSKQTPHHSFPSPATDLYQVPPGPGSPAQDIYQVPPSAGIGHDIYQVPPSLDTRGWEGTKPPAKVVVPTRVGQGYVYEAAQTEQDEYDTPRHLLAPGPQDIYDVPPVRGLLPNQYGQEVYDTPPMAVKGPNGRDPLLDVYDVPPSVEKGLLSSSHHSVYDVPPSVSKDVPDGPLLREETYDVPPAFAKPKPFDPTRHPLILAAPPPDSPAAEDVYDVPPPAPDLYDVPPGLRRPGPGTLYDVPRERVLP

B1: GST_YXXP_p130Cas (domain or fragment, UniProt Q61140 80-400)
chain: T2 sequence
B2: GST_CT_p130Cas (domain or fragment, UniProt Q61140 654-874)
chain: T1 sequence

Assays:
[1] = target: T1, GST_CT_p130Cas; assay: far-Western, overlay or dot blot; 1 μl of GST-tagged p130Cas proteins spotted on nitrocellulose; probed with MBP-tagged ErbB2 protein (1 μg/ml) in Interaction Buffer (50 mM Tris-HCl pH7.4, 150 mM NaCl, 1%Triton-X100) at 4 °C overnight; detected with anti-MBP; both purified
[2] = target: T2, GST_YXXP_p130Cas; assay: as above
[3] = target: MBP_longPPII_ErbB2 (human (by the printed accession P04626-1)) (UniProt P04626); assay: co-IP; in vitro binding assay: GST-tagged p130Cas and MBP-tagged ErbB2 purified proteins mixed in Interaction Buffer with 1% BSA overnight at 4 °C; immunoprecipitated with anti-MBP and proteinA Sepharose; blot anti-GST; both purified
[4] = target: MBP_shortPPII_ErbB2 (human (by the printed accession P04626-1)) (UniProt P04626); assay: as above

Molecule	binding [1]	binding [2]	binding [3]	binding [4]
MBP_shortPPII_ErbB2 (from UniProt P04626-1 1103-1194) (domain or fragment)	no binding (tested: 1 μg/ml)	no binding (tested: 1 μg/ml)		
B1			no binding	no binding
B2			no binding	no binding

— paper PMC6395809 (Scientific Reports, 2019)
